Read-outs that look alike come from different tables or passages of the source. Results are given in words; binding and its absence hold for the method and conditions named. In cells and extracts the contact can be indirect. A yes stands for co-enrichment or nearness to the bait. Other partners may have been found.
Experiments:
[1] = molecular target: T1, α-1 syntrophin (SNTA1) (human (endogenous in MCF-7)) (UniProt Q13424); test: affinity purification with mass spectrometry
T1 sequence: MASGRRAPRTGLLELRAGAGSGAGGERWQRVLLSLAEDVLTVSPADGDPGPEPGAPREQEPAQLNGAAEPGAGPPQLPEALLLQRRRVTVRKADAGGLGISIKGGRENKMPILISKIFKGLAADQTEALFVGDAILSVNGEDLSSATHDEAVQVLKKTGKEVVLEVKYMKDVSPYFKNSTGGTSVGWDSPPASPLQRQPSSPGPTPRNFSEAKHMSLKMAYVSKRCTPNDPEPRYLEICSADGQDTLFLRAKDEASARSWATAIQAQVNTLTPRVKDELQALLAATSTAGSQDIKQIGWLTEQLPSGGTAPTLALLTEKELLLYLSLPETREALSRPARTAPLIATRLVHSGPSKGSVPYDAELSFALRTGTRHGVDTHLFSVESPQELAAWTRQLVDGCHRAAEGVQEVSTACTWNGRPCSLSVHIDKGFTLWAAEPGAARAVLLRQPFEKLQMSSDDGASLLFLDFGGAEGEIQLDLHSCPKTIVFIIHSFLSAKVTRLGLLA

[2] = molecular target: T1, α-1 syntrophin (SNTA1) (human (endogenous in MCF-7)); test: affinity purification with mass spectrometry; remark: listed apart in the source

binding [1]: binds | binding [2]: binds
Substance: HSP90 ALPHA isoform I (from UniProt P07900-2 1-854)

From article doi:10.1101/2022.03.16.484629
